{
  "source": "patent US11542497B2",
  "about": "“Method for evaluating multiple different genes of interest” (THE UNIVERSITY OF TOKYO, priority 2017, dated 2023)",
  "key": {"[1]": {"test_system": "Ba/F3 cells expressing active EGFR mutants (11 kinds) or other oncoproteins (5 kinds)", "assay": "MANO method, drug sensitivity of 16 pooled Ba/F3 cell clones (Example 1, FIG. 3)", "assay_type": "cell-based", "method": "HEK (Human Embryonic kidney) 293 cells and mouse 3T3 fibroblasts were obtained from the American Type Culture Collection and maintained in Dulbecco's modified Eagle medium-F-12 (DMEM-F12) supplemented with 10% FBS (both from Thermo Fisher Scientific, Waltham, Mass.). Ba/F3 cells were cultured in RPMI 1640 medium (Thermo Fisher Scientific) supplemented with 10% FBS and mouse IL-3 (20 U/mL; Sigma, St. Louis, Mo.).\nFirst, 60-bp nucleotides (SEQ ID NO: 9) were inserted into the BamHI restriction enzyme site of pcx4-bleo vector (https://www.addgene.org/vector-database/2309/). Next, each primer containing each 6-bp random sequence was used to perform site-directed mutagenesis to produce each pcx5-bleo with each bar code sequence. Then, cDNA of wild-type human EGFR was isolated from a frozen sample of a subject having the wild-type EGFR and was ligated into pcx5-bleo. The cDNAs encoding the EGFR mutants were generated using the QuickChange II Site-Directed Mutagenesis kit (Agilent Technologies, Santa Clara, Calif.) and ligated into pcx5-bleo. […]\nThe recombinant plasmids prepared as described above were introduced together with packaging plasmids (Takara Bio, Shiga, Japan) into HEK293 cells to obtain recombinant retroviral particles. […] Cell transformation was assessed through either phase-contrast microscopy or staining with Giemsa solution. […]\nThe amplified PCR products were purified using AMPure beads (Beckman Coulter, Brea, Calif.). […] The library quality was assessed using a Qubit 2.0 fluorometer (Thermo Fisher Scientific) and the Agilent 2200 Tape Station system. The library was sequenced on an Illumina MiSeq (at 300 cycles) using Reagent Kit V2 to give 150-bp paired-end reads. These sequence reads included the following bar code-containing sequences: 5′-[…]-3′ (SEQ ID NO: 12) (where N denotes any nucleotide) and their complementary sequences. The amount of each mutant was estimated by determining the read counts for these bar code sequences. […] Thus, the signal from each treated cell line was calculated as 100×(median read count)/(median read count of the DMSO control). […]"}, "[2]": {"test_system": "EGFR protein having each mutation", "assay": "MANO method, TKI sensitivity of cells expressing EGFR single or compound mutants (Examples 2-4, FIG. 4-6)", "assay_type": "cell-based, human", "conditions": "EGFR exon-20 insertion; FIG. 5", "from_the_text": "First, 60-bp nucleotides (SEQ ID NO: 9) were inserted into the BamHI restriction enzyme site of pcx4-bleo vector (https://www.addgene.org/vector-database/2309/). Next, each primer containing each 6-bp random sequence was used to perform site-directed mutagenesis to produce each pcx5-bleo with each bar code sequence. Then, cDNA of wild-type human EGFR was isolated from a frozen sample of a subject having the wild-type EGFR and was ligated into pcx5-bleo. The cDNAs encoding the EGFR mutants were generated using the QuickChange II Site-Directed Mutagenesis kit (Agilent Technologies, Santa Clara, Calif.) and ligated into pcx5-bleo. In addition, cDNAs for EML4-ALK (Manabu Soda et al., nature, 2007, 448, pp. 561-566), KIFSB-RET (Takashi Kohnol et al., nature medicine, 2012, 18(3), pp. 375-377), KRAS (G12V), CD74-ROS1 (Kengo Takeuchi et al., nature medicine, 2012, 18(3), pp. 378-381), EGFR (E746-A750del), EGFR (L858R), BRAF (V600E), MET exon 14 skipping 22 and 23, and ERBB2(V777L) were isolated from frozen samples of lung cancer patients positive for the respective mutations and cloned into the pcx5-bleo vector.\nTwo days after the virus infection, the number of cells with transduced genes was counted and the same number of cells was mixed, and a portion of the mixed cells was used for DNA extraction (at day 0). […]"}},
  "note": "At least one structure is not confirmed: it was looked up by name or label, or the drawing left a doubt.",
  "data": [
    {"smiles": "C=CC(=O)Nc1cccc(Nc2nc(Nc3ccc(N4CCN(C(C)=O)CC4)cc3OC)ncc2C(F)(F)F)c1", "note": "[rociletinib]", "values": [
      {"measurement": "cell death of cells having TKI-sensitive EGFR mutants", "setting": "[1]; 5 TKI-sensitive EGFR mutants (L858R, E746-A750 del, G719S, E861Q, and S768I) among the pooled cells", "value": "dose-dependent cell death"},
      {"measurement": "drug sensitivity of EGFR(T790M)-expressing Ba/F3 cell", "setting": "[1]; EGFR(T790M)", "value": "sensitive"},
      {"measurement": "drug sensitivity of EGFR(T790M/C797S)-expressing cells", "setting": "[1]; EGFR(T790M/C797S)", "value": "resistant"},
      {"measurement": "sensitivity of a mutant with an exon-20 insertion", "setting": "[2]", "value": "decreased"}
    ]}
  ]
}
